# Measurements: PubChem BioAssay AID540276 (National Center for Advancing Translational Sciences (NCATS), 2011)
# The campaign covered roughly 300,000 compounds. About 5,400 (1.8%) were called active. Inconclusive means that the source gave no clear call. Such entries were picked first, then a sample of the others. Calls come from the whole dose curve; tested in HEK293 cells. Potencies of inconclusive entries are doubtful fits and often do not repeat.
# Assay: qHTS for inhibitors of binding or entry into cells for Marburg Virus
# Conditions: Marburg virus pseudotyped entry inhibition, cell reporter; series mostly up to 37.8 µM
# Potency is the fitted concentration of half-maximal effect.
row,Structure (SMILES),Potency
1,Cc1ccccc1Cn1cc(/C=N/n2cnnc2)c2ccccc21,"inconclusive: 25.1 µM [inhibitor, single point]"
2,CC(=O)Nc1ccc(CN2CCN(c3cccc(C(F)(F)F)c3)CC2)cc1,inactive
3,CN(C)CCCNCCCNC(=O)c1ccco1,"inconclusive: 18.3 µM [activator, single point]"
4,COc1ccc(C2=Nn3c(nnc3C3CCCCC3)SC2)cc1OC,"inconclusive: 29.1 µM [inhibitor, single point]"
5,CCC(CC)C(=O)Nc1c2c(nn1-c1ccc(OC)cc1)CS(=O)C2 (stereo not drawn),inactive
6,Cn1c(=O)c2c(nc(NCCc3ccccc3)n2Cc2ccc(Cl)cc2)n(C)c1=O,inactive
7,CCC(C)NC(=O)c1ccccc1-c1ccccc1C(=O)NC(C)CC (stereo not drawn),inactive
8,CC(=O)Nc1ccc(NC(=O)CCOc2ccccc2C)cc1,inactive
9,CCOc1ccc(S(=O)(=O)c2c(C(=O)c3ccc(C)cc3)cnc3cc4c(cc23)OCCO4)cc1,"inconclusive: 22.4 µM [inhibitor, partial curve, poor fit]"
10,Cc1ccc(N2CCN(C(=O)CNS(=O)(=O)c3ccc(Br)s3)CC2C)cc1 (stereo not drawn),"inconclusive: 11.2 µM [inhibitor, partial curve]"
11,c1ccc(Cn2c(CNc3nc4ccccc4n3CCN3CCOCC3)nc3ccccc32)cc1,"inconclusive: 20.6 µM [inhibitor, single point]"
12,CCOC(=O)c1cnc2ccc(C)cc2c1Nc1ccc(N(CC)CC)cc1,"inconclusive: 22.4 µM [inhibitor, single point]"
13,O=C(Nc1ccc2c(c1)C(=O)OC2)c1ccc(Cl)cc1Cl,inactive
14,CCC(=O)N1CCc2cc(Br)cc(S(=O)(=O)CCC(=O)N3CCN(c4cc(C)ccc4C)CC3)c21,"inconclusive: 12.6 µM [activator, single point]"
15,O=C(CN(c1ccc2c(c1)OCCO2)S(=O)(=O)c1ccccc1)NCC1CCCO1 (stereo not drawn),inactive
16,Cc1cccc(C(=O)NC2=NCCS2)c1,"inconclusive: 8.91 µM [inhibitor, partial curve, poor fit]"
17,Cc1c(C(=O)OC2CCCCC2)[nH]c2c1C(=O)CC(c1ccc(C(C)(C)C)cc1)C2 (stereo not drawn),inactive
18,COc1ccccc1C(=O)N1[C@@H](C(C)C)COc2cc(Br)ccc2S1(=O)=O,"inconclusive: 0.0315 µM [inhibitor, full curve, poor fit]"
19,c1ccc2c(c1)[nH]c1c(NCC3CCCO3)ncnc12 (stereo not drawn),"inconclusive: 11.2 µM [inhibitor, partial curve]"
20,COc1ccc(S(=O)(=O)N2CCCCC2)cc1NC(=O)CCCOc1ccc(C)cc1,"inconclusive: 1.12 µM [inhibitor, partial curve, poor fit]"
21,CN(C)c1ccc(/C=N/NC(=O)c2nnn(-c3nonc3N)c2COc2ccc(F)cc2)cc1,inactive
22,CN1CCN(c2ccc(/C=C3\C(=O)NC(=S)N(c4cccc(Br)c4)C3=O)o2)CC1,"inconclusive: 17.8 µM [inhibitor, partial curve, poor fit]"
23,COc1ccc(N2CCN(CCCNC(=O)c3cc4sccc4n3C)CC2)cc1,"inconclusive: 29.1 µM [inhibitor, single point]"
24,CC1CCCCC1NC(=O)C1CCCN(S(=O)(=O)c2ccc(-n3cnnn3)cc2)C1 (stereo not drawn),"inconclusive: 39.8 µM [inhibitor, partial curve, poor fit]"

row,Structure (SMILES),Potency
1,COc1cc(OC)c(OC)cc1/C=C1\SC(N2CCCCC2)=NC1=O,inactive
2,CN1CCc2cc(Cl)c(O)cc2[C@@H](c2ccccc2)C1,inactive
3,CC1C/C(=C/c2cccs2)C(=O)/C(=C/c2cccs2)C1 (stereo not drawn),inactive
4,COc1cccc(C2NC(=O)NC(O)(C(F)(F)F)C2C(=O)c2cccnc2)c1OC (stereo not drawn),inactive
5,O=C(COc1ccccc1)Nc1nccs1,inactive
6,O=C(Nc1ccc2oc(-c3ccccc3)nc2c1)c1ccco1,"inconclusive: 5.62 µM [activator, single point]"
7,CC(C)CC(=O)Nc1ccc(C(=O)CN2C(=O)NC3(CCOc4ccccc43)C2=O)cc1 (stereo not drawn),"inconclusive: 35.5 µM [activator, single point]"
8,O=C(OCc1ccccc1)c1cccc(-c2nnc(-c3ccccc3)o2)c1,inactive
9,CCOc1ccc(CCNS(=O)(=O)c2c(C)n[nH]c2C)cc1OCC,"inconclusive: 2.82 µM [activator, partial curve, poor fit]"
10,O=c1[nH]c2ccccc2nc1Cc1ccccc1,inactive
11,CC(C)COC(=O)N1C[C@H](O)C[C@H]1C(=O)Nc1ccc(Cl)cc1,"inconclusive: 17.8 µM [activator, single point]"
12,O=C(c1ccccc1)N1CCCc2ccccc21,inactive
13,CCOC(=O)c1c(C)[nH]c(C(=O)OCC(=O)Nc2cc(C)ccc2OC)c1C,inactive
14,O=c1cc(N2CCCCC2)c2ccccc2o1,"inconclusive: 6.31 µM [activator, single point]"
15,Nc1ccc(N2C(=O)c3ccccc3C2=O)c(Cl)c1,"inconclusive: 5.62 µM [inhibitor, single point]"
16,N[C@@H](Cc1c[nH]c2ccccc12)c1nnc(SCc2ccccc2)o1,"inconclusive: 29.1 µM [inhibitor, single point]"
17,CC(=O)c1cc(NC(=O)c2ccc(C)cc2)c(=O)oc1/C=C/N(C)C,inactive
18,O=C(Nc1ccc2snnc2c1)N1CCOCC1,inactive
19,O=C(O)CCCN=C1NC2(CCCC2)CC2=C1CCCC2,inactive
20,c1csc(Cn2nnnc2CN2CCN(c3nc4ccccc4s3)CC2)c1,"inconclusive: 15.8 µM [inhibitor, single point]"
21,Cc1ccc(Cl)cc1NC(=O)Cn1cc2c(n1)CCCC2,inactive
22,N=c1c(C(=O)NCc2ccco2)cc2c(=O)n3ccccc3nc2n1C1CCCC1,"inconclusive: 8.91 µM [inhibitor, partial curve, poor fit]"
23,O=C(O)Cc1ccc(C(=O)c2ccc(Cl)cc2Cl)s1,"inconclusive: 5.62 µM [inhibitor, single point]"
24,COCCCNC(=O)c1ccc2c(c1)nc(C)n2-c1cccc(C)c1,"inconclusive: 35.5 µM [inhibitor, single point]"

# Taken from the entries so far (3 entries):
row,Structure (SMILES),Potency
13,CCOC(=O)c1c(C)[nH]c(C(=O)OCC(=O)Nc2cc(C)ccc2OC)c1C,inactive
14,O=c1cc(N2CCCCC2)c2ccccc2o1,"inconclusive: 6.31 µM [activator, single point]"
15,Nc1ccc(N2C(=O)c3ccccc3C2=O)c(Cl)c1,"inconclusive: 5.62 µM [inhibitor, single point]"
